Results taken from paper doi:10.1101/2022.01.31.478465 (bioRxiv, 2022).
No constants are given. Whether binding was seen depends on the method and setting. For some assays here: In cells and extracts the contact can be indirect. Some entries that bind do so weakly or less than the wild type.

T1: AtPRP40b, in nuclei of A. thaliana leaves (A. thaliana (endogenous in leaf nuclei)) (UniProt F4JCC1)
T1 sequence: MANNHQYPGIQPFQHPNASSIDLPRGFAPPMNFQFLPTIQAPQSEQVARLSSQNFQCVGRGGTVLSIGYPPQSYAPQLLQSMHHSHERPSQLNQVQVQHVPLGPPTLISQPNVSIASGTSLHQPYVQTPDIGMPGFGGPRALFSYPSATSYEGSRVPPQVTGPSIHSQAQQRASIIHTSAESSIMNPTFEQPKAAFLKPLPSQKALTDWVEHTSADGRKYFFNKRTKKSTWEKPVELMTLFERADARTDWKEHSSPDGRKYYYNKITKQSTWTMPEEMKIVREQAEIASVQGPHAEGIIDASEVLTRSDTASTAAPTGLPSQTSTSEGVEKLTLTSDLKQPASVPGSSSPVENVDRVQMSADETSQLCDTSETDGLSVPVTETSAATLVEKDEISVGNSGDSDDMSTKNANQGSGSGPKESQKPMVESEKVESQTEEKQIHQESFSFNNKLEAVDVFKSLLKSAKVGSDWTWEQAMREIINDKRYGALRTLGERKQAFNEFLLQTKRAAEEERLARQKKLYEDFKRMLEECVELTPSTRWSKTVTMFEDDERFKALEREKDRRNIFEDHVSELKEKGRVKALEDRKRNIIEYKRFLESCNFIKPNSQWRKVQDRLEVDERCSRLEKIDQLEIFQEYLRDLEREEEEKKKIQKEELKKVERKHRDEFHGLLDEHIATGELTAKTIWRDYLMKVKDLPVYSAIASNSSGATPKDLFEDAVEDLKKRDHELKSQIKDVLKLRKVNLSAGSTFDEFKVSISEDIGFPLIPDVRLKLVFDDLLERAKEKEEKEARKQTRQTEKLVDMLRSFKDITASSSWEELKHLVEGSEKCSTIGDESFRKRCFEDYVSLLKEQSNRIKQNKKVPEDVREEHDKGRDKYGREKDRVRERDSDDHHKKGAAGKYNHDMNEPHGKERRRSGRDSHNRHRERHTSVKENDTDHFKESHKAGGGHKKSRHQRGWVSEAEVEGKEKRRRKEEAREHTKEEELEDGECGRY

T2: AtPRP40b, recombinant (A. thaliana, UniProt F4JCC1 1-992)
T2 sequence: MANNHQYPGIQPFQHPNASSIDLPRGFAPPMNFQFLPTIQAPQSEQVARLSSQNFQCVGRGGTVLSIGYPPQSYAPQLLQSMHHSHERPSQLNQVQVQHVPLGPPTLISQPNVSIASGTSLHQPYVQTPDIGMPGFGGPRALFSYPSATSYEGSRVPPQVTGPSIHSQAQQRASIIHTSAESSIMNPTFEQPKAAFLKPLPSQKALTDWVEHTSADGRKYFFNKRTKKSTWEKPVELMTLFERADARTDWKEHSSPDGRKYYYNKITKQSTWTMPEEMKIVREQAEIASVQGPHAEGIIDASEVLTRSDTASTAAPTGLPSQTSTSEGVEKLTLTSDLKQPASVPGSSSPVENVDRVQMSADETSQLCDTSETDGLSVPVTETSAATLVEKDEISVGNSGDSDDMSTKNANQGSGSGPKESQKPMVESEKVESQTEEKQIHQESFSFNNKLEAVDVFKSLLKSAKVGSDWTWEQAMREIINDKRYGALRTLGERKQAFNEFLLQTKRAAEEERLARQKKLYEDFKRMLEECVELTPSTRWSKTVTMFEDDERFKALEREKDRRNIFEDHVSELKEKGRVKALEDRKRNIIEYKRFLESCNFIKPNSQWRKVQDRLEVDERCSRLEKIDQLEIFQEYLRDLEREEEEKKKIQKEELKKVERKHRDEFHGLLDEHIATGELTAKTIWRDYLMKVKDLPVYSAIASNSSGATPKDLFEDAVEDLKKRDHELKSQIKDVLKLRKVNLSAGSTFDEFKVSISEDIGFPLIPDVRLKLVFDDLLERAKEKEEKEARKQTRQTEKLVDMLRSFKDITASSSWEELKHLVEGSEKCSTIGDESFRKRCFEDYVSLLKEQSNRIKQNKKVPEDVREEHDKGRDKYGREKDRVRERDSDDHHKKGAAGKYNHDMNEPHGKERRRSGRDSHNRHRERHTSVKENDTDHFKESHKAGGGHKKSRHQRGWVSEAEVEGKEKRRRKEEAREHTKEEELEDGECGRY


What was measured:
[1] = molecular target: T1, AtPRP40b, in nuclei of A. thaliana leaves (A. thaliana (endogenous in leaf nuclei)); assay: proximity ligation
AtPRP40b, recombinant = molecular target: T2, AtPRP40b, recombinant; assay: pull-down

Binder | binding [1] | binding (AtPRP40b, recombinant)
SERRATE (SE), full length, recombinant (natural protein, A. thaliana, UniProt Q9ZVD0 1-720, looked up) MADVNLPPSDSVDNRLPEKSTSSSPPPPPPSSSLPQQEQEQDQQQLPLRRERDSRERRDERDIERPPPNRRERDRSPLPPPRRDYKRRPSLSPPPPYRDRRHSPPQRRSPPQKRYRRDDNGYDGRRGSPRGGYGPPDRRFGYDHGGGYDREMGGRPGYGDERPHGRFMGRYQDWEGGRGGYGDASNSGNPQRDGLMSYKQFIQELEDDILPSEAERRYQEYKSEYITTQKRAFFNTHKEEDWLKNKYHPTNLLSVIERRNDLAQKVAKDFLLDLQSGTLDLGPAVTALNKSGRTSEPNSEDEAAGVGKRKRHGMGGAKENELLSAAPKAPSFTSDPKRILTDVEQTQALVRKLDSEKKIEENVLQGSETEKSGREKLHSGSTGPVVIIRGLTSVKGLEGVELLDTLVTYLWRVHGLDYYGKVETNEAKGLRHVRAEGKVSDAKGDENESKFDSHWQERLKGQDPLEVMAAKEKIDAAATEALDPHVRKIRDEKYGWKYGCGAKGCTKLFHAAEFVYKHLKLKHTELVTELTTKVREELYFQNYMNDPNAPGGQPATQQSGPRDRPIRRKPSMENRLRDDRGGRRERDGRANGNDRNDRSEDQQRGDNDGGNPGEVGYDAFGGQGGVHVPPFLSDINPPPMLMPVPGAGPLGPFVPAPPEVAMQMFRDPSGPNPPFEGSGRGGPAPFLLSPAFRQDPRRLRSYQDLDAPEEEVTVIDYRSL | binds | 
SE protein lacking forty C-terminal amino acids (SEΔ681-720), recombinant (domain or fragment, UniProt Q9ZVD0 1-680) MADVNLPPSDSVDNRLPEKSTSSSPPPPPPSSSLPQQEQEQDQQQLPLRRERDSRERRDERDIERPPPNRRERDRSPLPPPRRDYKRRPSLSPPPPYRDRRHSPPQRRSPPQKRYRRDDNGYDGRRGSPRGGYGPPDRRFGYDHGGGYDREMGGRPGYGDERPHGRFMGRYQDWEGGRGGYGDASNSGNPQRDGLMSYKQFIQELEDDILPSEAERRYQEYKSEYITTQKRAFFNTHKEEDWLKNKYHPTNLLSVIERRNDLAQKVAKDFLLDLQSGTLDLGPAVTALNKSGRTSEPNSEDEAAGVGKRKRHGMGGAKENELLSAAPKAPSFTSDPKRILTDVEQTQALVRKLDSEKKIEENVLQGSETEKSGREKLHSGSTGPVVIIRGLTSVKGLEGVELLDTLVTYLWRVHGLDYYGKVETNEAKGLRHVRAEGKVSDAKGDENESKFDSHWQERLKGQDPLEVMAAKEKIDAAATEALDPHVRKIRDEKYGWKYGCGAKGCTKLFHAAEFVYKHLKLKHTELVTELTTKVREELYFQNYMNDPNAPGGQPATQQSGPRDRPIRRKPSMENRLRDDRGGRRERDGRANGNDRNDRSEDQQRGDNDGGNPGEVGYDAFGGQGGVHVPPFLSDINPPPMLMPVPGAGPLGPFVPAPPEVAMQMFRDPSGPNPPFEGSGR |  | no binding (tested: 2 µg of SE variant)
